Results are given in words; binding and its absence hold for the method and conditions named. In cells and extracts the contact can be indirect. Some binding calls cover weakened binding; strength is not graded here.

Protein sequences, listed by entry. Tags and fused reporters are not part of them.
UniProt P16054: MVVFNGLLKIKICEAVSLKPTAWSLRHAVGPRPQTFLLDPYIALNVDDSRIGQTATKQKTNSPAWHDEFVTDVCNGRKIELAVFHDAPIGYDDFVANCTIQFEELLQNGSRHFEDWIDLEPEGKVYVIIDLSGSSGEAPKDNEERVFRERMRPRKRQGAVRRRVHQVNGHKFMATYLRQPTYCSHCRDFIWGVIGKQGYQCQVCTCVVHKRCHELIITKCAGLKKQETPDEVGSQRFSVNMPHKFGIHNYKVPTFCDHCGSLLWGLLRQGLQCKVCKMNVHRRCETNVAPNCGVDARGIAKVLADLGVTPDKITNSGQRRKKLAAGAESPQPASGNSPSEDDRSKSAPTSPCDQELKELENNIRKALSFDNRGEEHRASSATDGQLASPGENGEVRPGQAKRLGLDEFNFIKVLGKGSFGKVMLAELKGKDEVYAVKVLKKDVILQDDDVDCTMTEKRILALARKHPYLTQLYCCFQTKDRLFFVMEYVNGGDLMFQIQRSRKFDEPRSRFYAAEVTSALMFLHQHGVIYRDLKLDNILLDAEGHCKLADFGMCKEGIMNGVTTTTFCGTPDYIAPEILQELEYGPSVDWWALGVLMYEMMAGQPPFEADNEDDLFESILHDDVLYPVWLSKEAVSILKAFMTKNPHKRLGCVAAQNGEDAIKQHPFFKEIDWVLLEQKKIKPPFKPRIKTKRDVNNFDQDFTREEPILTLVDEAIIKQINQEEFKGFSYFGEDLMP

From PMC5004862 come the findings set out here.

This experiment deals with T1, mitochondrial aldehyde dehydrogenase 2 (ALDH2) (mouse (endogenous in 3T3-L1)) (UniProt P47738).
T1 sequence: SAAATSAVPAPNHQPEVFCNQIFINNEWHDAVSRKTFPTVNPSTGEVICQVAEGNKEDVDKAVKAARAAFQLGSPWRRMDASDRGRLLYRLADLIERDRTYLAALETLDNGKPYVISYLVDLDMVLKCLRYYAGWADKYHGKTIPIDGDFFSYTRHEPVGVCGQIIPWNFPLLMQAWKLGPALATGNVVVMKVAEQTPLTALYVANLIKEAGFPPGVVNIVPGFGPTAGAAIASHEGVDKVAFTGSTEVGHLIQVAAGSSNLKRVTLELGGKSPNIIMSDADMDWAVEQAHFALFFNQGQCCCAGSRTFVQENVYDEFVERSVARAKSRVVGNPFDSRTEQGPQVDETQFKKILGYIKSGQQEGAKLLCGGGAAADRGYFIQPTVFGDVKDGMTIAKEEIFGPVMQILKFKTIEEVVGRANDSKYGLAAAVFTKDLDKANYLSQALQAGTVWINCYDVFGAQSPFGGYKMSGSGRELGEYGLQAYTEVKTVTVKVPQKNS
Kind of experiment: co-IP; extracts of 3T3-L1 cells harvested at the indicated times of adipocyte differentiation, NP40 cell lysis buffer; anti-ALDH2 or anti-PKCε (or IgG) coupled to Dynabeads Protein A; immunoblot for PKCε or ALDH2.

For the substance “protein kinase C ε (PKCε) (from UniProt P16054 1-737) (enzyme)”, the binding result is given as “binds”.
